± gives the standard deviation of the averaged measurements. Most values lie at the floor of the assay. Slopes are relative: functional sequences can read slightly below zero. Where only a bound is given, the exact number is not on record here.

The data set has as its system Saccharomyces cerevisiae PS128 hsf1 delta, HSF1(1-493) fusion. Description: growth estimate (transactivation domain function in HSF1 fusion, heat-shock survival) (a.u. (slope of normalised read count over time)); higher = stronger growth at 37°C, i.e. more transactivation activity. Conditions: library: random library.
In the case of PPATPVMNVSSVRDKPSGTY, the growth estimate is below -0.25.

As to RVRMARSELGRKIL, the growth estimate is below -0.25.

With WARDDYIPPPNPRSMLVGSA, the growth estimate was below -0.25.

For the substance TFWGTPSGRKNLGRDMSGPI, the growth estimate was below -0.25.

Turning to ARFICLRADDARSGRPLLMA, the growth estimate was below -0.25.

Turning to PYLLQSA, the growth estimate was below -0.25.

For the substance GTVCVCKLGWYREEGQFMSS, the growth estimate was below -0.25.

Regarding CVRQDREYCTS, the growth estimate is below -0.25.

Take ISAVIS: the growth estimate is below -0.25.

As for TRSRMVLTFGEVDVVDLTNG, the growth estimate was below -0.25.

With VGPLVRPL, the growth estimate is below -0.25.

Regarding FGWIPASY, the growth estimate was below -0.25.

With VAYKAEHVTFAGAYF, the growth estimate is below -0.25.

With AKSVTALAEVISWADRIYGV, the growth estimate was below -0.25.

For VIR, the growth estimate is below -0.25.

Consider LIHIGVARTLTHYHASSDKS, for which the growth estimate was below -0.25.

Regarding YPITTRVDLLLMIAQ, the growth estimate is -0.246.

Regarding RTF, the growth estimate is -0.224 ± 0.037.

Take CGIIQFNDLLYS: the growth estimate was 0.19.

Regarding IKQVS, the growth estimate was below -0.25.

For AHGGIGTPPEVGS, the growth estimate is below -0.25.

With CESGRNSSKMWLLGPLMLTD, the growth estimate is below -0.25.

As for EISLRDESLRYDSGD, the growth estimate is below -0.25.

In the case of VHHALQNRF, the growth estimate is below -0.25.

On to STIFAMPSDLFSASRDLGST, for which the growth estimate was below -0.25.

In the case of GTYRSVCSGGVASKRY, the growth estimate was below -0.25.

Consider NIALSYFSPDEYSPKCSLCA, for which the growth estimate is below -0.25.

Turning to STRGPRRVGPAGDPVLGAGP, the growth estimate is below -0.25.

With TLYRTTE, the growth estimate was below -0.25.

Turning to QQACIGCIGVSDFTRH, the growth estimate was below -0.25.

For the substance REAFHEEPSVLRFIPPDVHD, the growth estimate was below -0.25.

As to SGRSASSQEALRLDASRGRE, the growth estimate was below -0.25.

On to GCHRKFVATIL, for which the growth estimate is below -0.25.

ELSQNSIRGL: the growth estimate was below -0.25.

On to KNLVLYTRWDCCDGNGLHVQ, for which the growth estimate was below -0.25.

On to APVGVGTAECLTSVVILCVR, for which the growth estimate was below -0.25.

For LIFVPGRIVSPRITHGIPFY, the growth estimate is below -0.25.

For the substance ASYDRNVFTSRPAA, the growth estimate is below -0.25.

For the substance LWENQPHGHGL, the growth estimate was below -0.25.

Regarding DSASFLQTMW, the growth estimate is 19.8.

Take IERWGRAASRW: the growth estimate is below -0.25.

Regarding AINA, the growth estimate is below -0.25.

Consider DSQSSSARVWLDLNQKQSCH, for which the growth estimate is below -0.25.

Consider CYATFRSEGIVREAHRPRRV, for which the growth estimate is below -0.25.

As for LTKQ, the growth estimate was below -0.25.

As to IMSSNQCQLRHSEVSRTSHL, the growth estimate was below -0.25.

For NGRGWGPSRYGPE, the growth estimate was below -0.25.

Consider GGIL, for which the growth estimate is below -0.25.

With GLTCTYTGMS, the growth estimate was below -0.25.

Consider LIESAV, for which the growth estimate is below -0.25.

In the case of PVWTRHTH, the growth estimate was below -0.25.

On to ADDLHMLNGSIPPGGGRGVL, for which the growth estimate was below -0.25.

As to RRLGDRPVLLWLNLQTGLSN, the growth estimate was below -0.25.

Regarding NQGRGRQLAGRTAQSKAAPW, the growth estimate was below -0.25.

Consider IQARQRGY, for which the growth estimate was below -0.25.

On to ERQIGRGYNTRCVWRYYINC, for which the growth estimate was below -0.25.

With TIEGVITRERMQLPTPGDSP, the growth estimate is below -0.25.

As for CCGDAWTKTDGTKGDSPTRK, the growth estimate was below -0.25.

As to TIYRRCTGPHGCA, the growth estimate is below -0.25.

Consider RSPDPMGSRLLAASLVLRYK, for which the growth estimate is -0.246.

Take LLIICAARGLEQAANA: the growth estimate was below -0.25.

Turning to SLLGVLSMYHRRRSRHIEAR, the growth estimate was below -0.25.

Turning to AMDRRRLGLRRELSKKGSID, the growth estimate was below -0.25.

Take LTHMRKERPDGIALPHGIAT: the growth estimate is below -0.25.
